# Assay results reported in PubChem BioAssay AID662 (National Center for Advancing Translational Sciences (NCATS), 2007).
# The list shows a part of the results. Further columns of the screen follow, without active or inactive calls. The list favours compounds with an active or inconclusive main result. The note in brackets gives the kind of curve behind each potency; many fits are weak.
# Assay: Cell signaling CRE-BLA (Fsk stim)
# Conditions: CHO CRE-bla reporter (cAMP response element driving beta-lactamase), forskolin EC10, beta-lactamase ratio; measured here: 460 nm blue channel
# Text: NIH Molecular Libraries Screening Centers Network [MLSCN]
# NIH Chemical Genomics Center [NCGC]
# Assay Provider: Marshall W. Nirenberg, U.S. National heart lung & blood institute
# Memories persist for different lengths of time, from seconds or minutes to a lifetime. There are two kinds of memory: short-term memory (STM) and long-term memory (LTM). STM lasts for minutes to hours, which maybe mediated by modifications of molecules involved in synaptic functions. LTM lasts for days or longer, and may be due to the formation of new synapses or restructuring of existing synapses. LTM, but not STM, requires gene transcription and synthesis of proteins. CREB (cyclic-AMP Responsive Element Binding Protein) is one of the candidates plays an important role for enhancement of some types of LTM. CREB, a family of transcription factors, regulates the transcription of genes containing cAMP Responsive Elements (CRE). CRE is a nucleotide sequence often found in the promoter regions of genes that are binding sites for CREB.
# Using a beta-lactamase reporter-gene under control of cAMP responsive element, a cell-based assay [CellSensor(TM) CRE-bla CHO developed by Invitrogen Corp.] was used to measure forskolin-induced signaling. Library compounds were measured for their ability to modulate positively or negatively the action of EC10 NKH 477, a water soluble forskolin, on reporter gene activity. Compounds were screened in a titration series in 1536-well format. Positive and negative modulators were identified based on the AC50 values derived from the screening data.
# NCGC Assay Protocol Summary
# 2000 cells/5uL in Opti-MEM medium containing 0.5% dialyzed FBS, 0.1 mM NEAA, 1 mM sodium pyruvate and 10 mM HEPES was dispensed into 1536-well plates and cells were cultured at 37 degrees Celsius overnight. […] And then the plates were incubated at 37 degrees Celsius for 3 hours. 1 uL of CCF4-dye mixture was added to each well. After incubated at room temperature for 2 hours the plates were measured on an EnVision plate reader at Excitation 405nm, Emission1=460nm and Emission 2=530nm. The %Activity was determined from the ratio of 460nm/530nm.
# Keywords: NIH Roadmap, MLSCN, MLSMR, qHTS, NCGC, CRE, beta-lactamase reporter-gene assay.
row,SMILES,AC50
1,Cn1c(C(=O)N2CCN(C(=O)c3ccco3)CC2)cc2c(=O)n3ccccc3nc21,"12.6 µM [rising, partial curve]"
2,COc1ccc(CNc2ncncc2-c2cccc(NS(C)(=O)=O)c2)c(OC)c1,"5.01 µM [rising, full curve]"
3,Cc1cc2c(=O)n(CC(=O)N3CCN(c4ccccc4)CC3)cnc2s1,"0.316 µM [falling, single point]"
4,N#Cc1c(NC(=O)CSc2ncc(-c3ccccc3)n2CC2CCCO2)sc2c1CCCC2 (stereo unspecified),"3.16 µM [rising, single point]"
5,COc1ncc2nc(C)c(=O)n(CCc3ccccc3)c2n1,"12.6 µM [rising, partial curve]"
6,O=C(O)CCCC(=O)N1CCN(c2nc(-c3ccccc3)c3ccccc3n2)CC1,"10 µM [rising, partial curve]"
7,CC1CCCN(C(=O)C2CCN(CCCc3ccccc3)CC2)C1 (stereo unspecified),"5.01 µM [falling, single point]"
8,CC(=NCc1cccnc1)C1=C(O)c2ccccc2C1=O,"12.6 µM [rising, single point]"
9,COc1ccc(CCNC(=O)CC2Oc3ccc(Cl)cc3NC2=O)cc1OC (stereo unspecified),"10 µM [rising, partial curve]"
10,COc1ccc(C2SCCN2S(=O)(=O)c2ccccc2)cc1OC (stereo unspecified),"10 µM [rising, partial curve]"
11,O=C(Nc1cccc2cccnc12)c1cccnc1,"10 µM [rising, partial curve]"
12,O=c1[nH]c(SCc2cccc(Cl)c2)nc2c1CCCC2,"7.94 µM [rising, partial curve]"
13,CC(C)n1c(=NC(=O)c2ccco2)c(C#N)cc2c(=O)n3ccccc3cc21,"12.6 µM [rising, partial curve]"
14,CC(=O)N1CCc2cc(S(=O)(=O)NC(CC(C)C)C(=O)N3CCc4ccccc4C3)ccc21 (stereo unspecified),"25.1 µM [rising, single point]"
15,CCOc1ncccc1C(=O)OCC(=O)c1c(N)n(C)c(=O)n(C)c1=O,"10 µM [rising, single point]"
16,O=S(=O)(c1ccc(OCC(O)CNCc2ccco2)c(Cl)c1)N1CCOCC1 (stereo unspecified),"0.1 µM [falling, partial curve, poor fit]"
17,CN1CCN(c2ncc3nc(CCc4ccccc4)c(=O)n(C4CC4)c3n2)CC1,"10 µM [rising, partial curve]"
18,CSc1cccc(NC(=O)CN(C2CCCCC2)S(C)(=O)=O)c1,"7.94 µM [falling, partial curve, poor fit]"
19,N#CCCn1c(=O)c(-c2ccc(F)cc2)nc2cnc(Oc3ccccc3)nc21,"20 µM [rising, partial curve]"
20,O=C(OCC(=O)N1CCN(C(=O)c2ccco2)CC1)c1cc(-c2ccccc2)nc2ccccc12,"6.31 µM [rising, partial curve]"
21,CC(C)(C)C(=O)NC(c1ccc(Cl)cc1)[C@]1(C)C[C@H]1C1CCCCC1 (stereo partly specified),"20 µM [rising, single point]"
22,O=c1cc(CNC2CCCCC2)c2ccccc2[nH]1,"3.98 µM [falling, single point]"

row,SMILES,AC50
1,CC(C)=CCc1c(O)cc(O)c2c1O[C@H](c1ccccc1)CC2=O,"31.6 µM [rising, single point]"
2,CN1CCN(c2ncc3nc(-c4ccc(F)cc4)c(=O)n(C4CC4)c3n2)CC1,"10 µM [rising, partial curve]"
3,COc1ccccc1N1CCN(C(=O)c2cc(-c3ccc(C)cc3)on2)CC1,"15.8 µM [falling, partial curve]"
4,CN(C(=O)c1cc2n(n1)C(C(F)(F)F)CC(c1ccco1)N2)c1ccc(OC(F)(F)F)cc1 (stereo unspecified),"25.1 µM [falling, single point]"
5,CN(C)c1ccc(/C(=N\O)C(F)(F)F)cc1,"0.00316 µM [falling, full curve, poor fit]"
6,Cc1cc(C)c(C#N)c(SCC(=O)Nc2nnc(-c3ccccc3)s2)n1,"0.398 µM [rising, full curve]"
7,CCOC(=O)c1nc(S(C)(=O)=O)ncc1Cl,"12.6 µM [falling, partial curve]"
8,CCn1c(=O)cc(SCC(=O)Nc2cccnc2)c2ccccc21,"10 µM [rising, partial curve]"
9,O=C(C1CCC1)N1CCc2cc(S(=O)(=O)N3CCCCC3)ccc21,"6.31 µM [rising, partial curve]"
10,COc1ccc2cc3cc(C(=O)NCCCN4CCOCC4)oc3nc2c1,"25.1 µM [falling, single point]"
11,O=C1NCCCc2c1oc1ccc(O)cc21,"3.98 µM [falling, full curve]"
12,CCOC(=O)N1CCN(Cc2cccs2)CC1,"0.631 µM [falling, full curve, poor fit]"
13,CCOC(=O)C1=C(C)N=c2s/c(=C\c3ccncc3)c(=O)n2C1c1ccc2c(c1)OCO2 (stereo unspecified),"1 µM [falling, partial curve, poor fit]"
14,COc1ccc(OC)c(-c2cc(C(=O)Nc3c(C)nn(Cc4ccccc4Cl)c3C)no2)c1,"1.26 µM [rising, partial curve]"
15,CCOC(=O)c1c(C)oc2c(F)c(F)c(F)c(F)c2c1=O,"2.51 µM [falling, partial curve]"
16,CCOC(=O)N1CCC(NC(=O)c2cc3c(-c4ccc(OC)c(OC)c4)nn(C)c3s2)CC1,"3.98 µM [rising, single point]"
17,O=C(N1CCOCC1)N1CCN(c2nc(-c3ccc(F)cc3)cs2)CC1,"3.98 µM [rising, partial curve]"
18,Cc1cc(N)c2ccccc2[n+]1CCCCCCCCCC[n+]1c(C)cc(N)c2ccccc21,"31.6 µM [falling, single point]"
19,CC(NO)C(C)(C)NO (stereo unspecified),"25.1 µM [rising, single point]"
20,COc1ccc2c(C)nc(Nc3nc(C)cc(=O)[nH]3)nc2c1,"3.98 µM [rising, full curve]"
21,O=C(CSc1nc2ccccc2c(=O)n1Cc1ccco1)NCc1ccccc1,"25.1 µM [rising, single point]"
22,O=C1C(C=NCCN2CCOCC2)=C(O)c2ccccc21,"1.26 µM [falling, partial curve, poor fit]"

row,SMILES,AC50
1,O=C(N1CCOCC1)N(Cc1ccco1)CC1CCCO1 (stereo unspecified),"0.0794 µM [falling, full curve, poor fit]"
2,COc1ccc(OC)c(Nc2cc(-c3ccccc3)nc(N)n2)c1,"3.98 µM [rising, single point]"
3,O=C(CSc1nnc(COc2ccccc2)n1Cc1ccco1)NCc1ccco1,"31.6 µM [falling, single point]"
4,CCn1c2ccccc2c2cc(NC(=O)Cc3ccc(S(=O)(=O)N4CCOCC4)s3)ccc21,"1.26 µM [falling, partial curve]"
5,CN1CCN(CCCNC(=O)c2cc3c(=O)n(C)c4ccccc4c3s2)CC1,"10 µM [rising, single point]"
6,CC1CCCC(C)N1C(=O)CSc1nnc(-c2c[nH]c3ccccc23)o1 (stereo unspecified),"12.6 µM [rising, single point]"
7,CCN(CC)S(=O)(=O)c1ccc(C(=O)OC2CCCCC2CN(C)C)cc1 (stereo unspecified),"10 µM [rising, single point]"
8,Cc1c(C(C)O)nnn1-c1nonc1N (stereo unspecified),"0.00398 µM [falling, full curve, poor fit]"
9,O=C1c2ccccc2C(=O)N1OCCOCCOCCON1C(=O)c2ccccc2C1=O,"0.00316 µM [falling, full curve, poor fit]"
10,O=c1[nH]c(C2CCCN(S(=O)(=O)c3ccccc3)C2)nc2c1nnn2Cc1ccccc1 (stereo unspecified),"10 µM [rising, partial curve]"
11,CC(C)(CC(=O)N1CCN(c2ccc(Cl)cc2)CC1)CC1=NS(=O)(=O)c2ccccc2N1,"12.6 µM [falling, single point]"
12,Cc1cccc2cc(C#N)c(NCCNS(=O)(=O)c3ccc4c(c3)OCCO4)nc12,"12.6 µM [rising, partial curve]"
13,Cn1c(=O)n(C)c2cc(C(=O)O)ccc21,"25.1 µM [falling, single point]"
14,O=c1c(CCc2ccccc2)nc2cnc(N3CCNCC3)nc2n1C1CC1,"15.8 µM [rising, single point]"
15,O=C(Nc1ccc(-n2nncc2-c2ccco2)cc1)c1cccc(F)c1,"12.6 µM [rising, single point]"
16,CCn1cc(C(=O)NCc2ccco2)c(=O)c2cc(S(=O)(=O)N3CCc4ccccc4C3)ccc21,"12.6 µM [falling, partial curve]"
17,COc1ccc(N(CC(=O)Nc2cccc(C(C)=O)c2)S(C)(=O)=O)cc1OC,"12.6 µM [rising, partial curve]"
18,COC(=O)c1cc(OC)c(OC)cc1NC(=O)c1c(-c2ccccc2Cl)noc1C,"0.501 µM [rising, partial curve]"
19,Cn1c(=O)c2c(nc(SCCNS(=O)(=O)c3ccccc3)n2C)n(C)c1=O,"20 µM [rising, single point]"
20,COC(=O)c1ccccc1NC(=O)c1noc2c1CCCC2,"25.1 µM [rising, single point]"
21,CCOC(=O)Cc1csc(NC(NC(=O)CC)(C(F)(F)F)C(F)(F)F)n1,"0.2 µM [rising, partial curve, poor fit]"
22,COc1ccc(O)c(/C=c2/sc3nc4cc(C)c(C)cc4n3c2=O)c1,"20 µM [rising, single point]"

# Another view of part of the listing above:
row	SMILES	AC50
12	Cc1cccc2cc(C#N)c(NCCNS(=O)(=O)c3ccc4c(c3)OCCO4)nc12	12.6 µM [rising, partial curve]
13	Cn1c(=O)n(C)c2cc(C(=O)O)ccc21	25.1 µM [falling, single point]
14	O=c1c(CCc2ccccc2)nc2cnc(N3CCNCC3)nc2n1C1CC1	15.8 µM [rising, single point]
